Results are given in words; binding and its absence hold for the method and conditions named. In cells and extracts the contact can be indirect. Some binding calls cover weakened binding; strength is not graded here.

By UniProt entry, the sequences of proteins in these tests, tags left out. Where a name states a change or a piece, a line headed by the entry shows the natural chain unless it says otherwise.
UniProt Q5R548: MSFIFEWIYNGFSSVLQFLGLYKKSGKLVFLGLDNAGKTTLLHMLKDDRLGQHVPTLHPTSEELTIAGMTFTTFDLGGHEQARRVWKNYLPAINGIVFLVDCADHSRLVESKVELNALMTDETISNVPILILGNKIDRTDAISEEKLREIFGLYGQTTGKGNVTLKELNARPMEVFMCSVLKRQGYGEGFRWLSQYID

This test deals with EGFR-GFP (from lysate of transfected COS7 cells; also expressed in HeLa cells) (human) [GFP: P42212]. Briefly: GST pull-down from COS7 lysate containing EGFR-GFP, with GDP or GTPγS, anti-GFP immunoblot. Background: Immunoblotting shows a protein as a band on a membrane.

For the substance “GST-tagged SAR1A wild type (wt) (from UniProt Q5R548 1-198)”, the binding result is reported as “binds”.

For the origin of these results see patent US20190277844A1.
